Data on two sequences can be found in patent US20100129870.

Protein sequences, listed by entry. Tags and fused reporters are not part of them. Residues count along the entry.
UniProt P02769, 25-607: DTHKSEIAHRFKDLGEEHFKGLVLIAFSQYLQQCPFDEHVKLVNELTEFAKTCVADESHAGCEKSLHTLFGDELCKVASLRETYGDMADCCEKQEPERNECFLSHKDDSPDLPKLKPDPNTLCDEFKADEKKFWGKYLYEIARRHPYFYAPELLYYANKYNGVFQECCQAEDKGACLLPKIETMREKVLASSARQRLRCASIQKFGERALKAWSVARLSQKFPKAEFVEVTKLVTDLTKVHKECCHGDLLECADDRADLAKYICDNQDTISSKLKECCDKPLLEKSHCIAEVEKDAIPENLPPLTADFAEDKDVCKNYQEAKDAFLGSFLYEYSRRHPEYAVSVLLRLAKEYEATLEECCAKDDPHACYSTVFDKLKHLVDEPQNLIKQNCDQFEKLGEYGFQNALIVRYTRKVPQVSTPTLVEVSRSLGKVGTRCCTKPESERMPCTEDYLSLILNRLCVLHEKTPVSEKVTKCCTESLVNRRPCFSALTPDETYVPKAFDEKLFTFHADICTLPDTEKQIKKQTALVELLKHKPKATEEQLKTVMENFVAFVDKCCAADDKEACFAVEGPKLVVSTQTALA

Series [1] concerns the target T1, myeloperoxidase (MPO) (Homo sapiens) (UniProt P05164).
T1 sequence (limits assumed): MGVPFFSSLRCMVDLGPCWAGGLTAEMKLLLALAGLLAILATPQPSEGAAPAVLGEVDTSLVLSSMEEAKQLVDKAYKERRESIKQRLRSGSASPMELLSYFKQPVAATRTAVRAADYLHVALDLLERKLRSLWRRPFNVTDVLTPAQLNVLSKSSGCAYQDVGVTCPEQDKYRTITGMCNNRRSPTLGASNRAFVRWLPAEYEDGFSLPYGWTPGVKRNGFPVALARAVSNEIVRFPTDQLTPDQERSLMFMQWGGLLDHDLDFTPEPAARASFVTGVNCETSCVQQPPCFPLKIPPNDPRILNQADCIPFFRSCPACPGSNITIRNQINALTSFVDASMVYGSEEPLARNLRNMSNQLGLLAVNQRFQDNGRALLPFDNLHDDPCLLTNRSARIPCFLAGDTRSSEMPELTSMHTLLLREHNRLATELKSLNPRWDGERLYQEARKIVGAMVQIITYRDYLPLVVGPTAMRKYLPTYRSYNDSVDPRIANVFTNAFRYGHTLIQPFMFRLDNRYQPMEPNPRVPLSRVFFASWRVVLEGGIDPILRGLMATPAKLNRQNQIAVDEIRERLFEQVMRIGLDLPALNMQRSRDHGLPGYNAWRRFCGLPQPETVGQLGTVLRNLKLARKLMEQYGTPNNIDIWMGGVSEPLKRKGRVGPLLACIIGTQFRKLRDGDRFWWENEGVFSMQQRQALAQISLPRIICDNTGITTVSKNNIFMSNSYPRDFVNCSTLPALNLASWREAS
The series can be described thus: filter binding. The following applies: label: 32P (alpha-32P-ATP), variant of RNA pool 2; for pKd: room temperature.

In series [2] the target is bovine serum albumin (BSA) (Bos taurus) (UniProt P02769). The series can be described thus: filter binding. The settings on record: 100 nM BSA; specificity control; not significantly different from pool (1.86); label: 32P (alpha-32P-ATP); variant of RNA pool 2; counted as no binding.

pKd: −log10 of the molar value. The exact form of at least one protein or probe is not confirmed. For some of these results: Where a protein sequence is shown, tags need not be part of it.

Consider “GGUAGAUACGAUGGAACACGAAUAUUUCAAAGUGAUACCCCAGGGCAUGACGCGCAGCCA [MPO aptamer sequence number 17]”, for which the pKd (usually the negative decadic logarithm of the Kd, by convention in mol/L) in series [1] (Bmax 77.2%) is 6.86.
In the case of “GGUAGAUACGAUGGAACACGAAGAUUUCAAAGUGAUACCCCAGGGCAUGACGCGCAGCCA [MPO aptamer sequence number 16]”, the binding signal was 11.4 % bound in series [1] (100 nM MPO, 12.48 at 50 nM, 0.24 without protein) and 2.46 % bound in series [2]. In series [1] (Bmax 52%), this sequence had a pKd of 6.71.
